Test results published in paper doi:10.1101/2020.05.13.094771.
Results are given in words; binding and its absence hold for the method and conditions named. In cells and extracts the contact can be indirect. Here binding means that the protein was enriched with, or labelled near, the bait; the list need not be complete.

The chains behind the UniProt entries cited, without tags or fusion partners. Where a name states a change or a piece, a line headed by the entry shows the natural chain unless it says otherwise.
UniProt A5F9W9: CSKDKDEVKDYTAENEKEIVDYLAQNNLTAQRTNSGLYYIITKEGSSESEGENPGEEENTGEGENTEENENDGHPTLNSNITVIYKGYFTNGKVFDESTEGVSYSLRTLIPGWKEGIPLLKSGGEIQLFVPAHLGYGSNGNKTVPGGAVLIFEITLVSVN

Target: sfGFP-CTD_(SprB (368 aa)) (F. johnsoniae) (UniProt A1E5U5)
Assay: affinity purification with mass spectrometry

| binding | Substance |
| --- | --- |
| binds | Fjoh_3466 (from UniProt A5FE93) |
| binds | Fjoh_4997 (PPI) (from UniProt A5F9W9) |
